Assay results published in PMC4376871.
Results are given in words; binding and its absence hold for the method and conditions named. Binding calls can cover weak binding; strength is not graded here. Sequences can lack the tags named with a protein.

Assays:
[1] = biological target: T1, Arabidopsis SHAGGY-like protein kinase AtSK21 fused to the GAL4 DNA binding domain (Arabidopsis thaliana (ecotype Sei-0 cDNA)) (UniProt Q39011); assay: two-hybrid; yeast Y187; C4 or C4 mutants on AD, AtSKs on DBD; quantitative ß-galactosidase activity (Galacto-Star, chemiluminescence) relative to the C4/AtSK23 interaction
T1 sequence: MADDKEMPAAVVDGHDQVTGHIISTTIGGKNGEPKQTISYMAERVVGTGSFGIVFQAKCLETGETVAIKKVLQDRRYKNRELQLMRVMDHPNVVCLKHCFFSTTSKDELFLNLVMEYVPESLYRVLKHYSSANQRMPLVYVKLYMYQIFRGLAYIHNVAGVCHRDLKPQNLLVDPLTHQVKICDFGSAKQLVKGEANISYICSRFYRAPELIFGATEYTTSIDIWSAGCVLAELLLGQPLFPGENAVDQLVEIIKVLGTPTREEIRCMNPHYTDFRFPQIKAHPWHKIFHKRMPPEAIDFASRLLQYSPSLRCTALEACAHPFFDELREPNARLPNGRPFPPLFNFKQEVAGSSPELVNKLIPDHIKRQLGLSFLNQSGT

[2] = biological target: T2, Arabidopsis SHAGGY-like protein kinase AtSK22 fused to the GAL4 DNA binding domain (Arabidopsis thaliana (ecotype Sei-0 cDNA)) (UniProt Q39012); assay: as above
T2 sequence: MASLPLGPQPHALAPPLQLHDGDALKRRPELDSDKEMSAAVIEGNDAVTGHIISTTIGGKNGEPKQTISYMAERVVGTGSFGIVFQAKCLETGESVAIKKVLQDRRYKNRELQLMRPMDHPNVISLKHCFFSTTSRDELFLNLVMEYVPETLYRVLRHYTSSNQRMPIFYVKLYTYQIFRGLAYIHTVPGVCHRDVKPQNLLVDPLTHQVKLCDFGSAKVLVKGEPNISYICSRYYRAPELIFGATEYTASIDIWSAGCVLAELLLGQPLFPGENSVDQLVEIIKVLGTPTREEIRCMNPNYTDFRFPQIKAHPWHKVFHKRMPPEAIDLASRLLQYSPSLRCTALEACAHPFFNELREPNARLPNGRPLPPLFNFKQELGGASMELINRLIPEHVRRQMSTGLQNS

## Beet curly top virus (BCTV-B[US:Logan:76]) C4 protein fused to the GAL4 activation domain
[1]
  binding: binds
[2]
  binding: binds
